# Experimental data taken from the supplement of paper PMC8728848.
# The other results are listed elsewhere or left out.
# Key:
# Assay in all cases: glycan array binding signal (z-score within array); higher = stronger binding
# Conditions in all cases: glycan notation: IUPAC condensed, linker removed
# [1] = molecular target: Neu5Ac(a2-3)Gal(b1-4)GlcNAc(b1-6)GalNAc
# Procedure, shortened: (§1)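 Columns mapping to the same glycan were averaged after glycan names were converted to IUPAC-condensed notation. The data come from 3228 arrays in the Consortium for Functional Glycomics database, limited to those with an available protein sequence. Binding is reported as a within-array Z-score averaged across arrays of one protein sequence and across linkers.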
# [2] = molecular target: Neu5Ac(a2-3)Gal(b1-4)GlcNAc(b1-6)[Gal(b1-3)]GalNAc
# Procedure, shortened: as §1
# [3] = molecular target: Neu5Ac(a2-3)Gal(b1-4)GlcNAc(b1-6)[Neu5Ac(a2-3)Gal(b1-3)]GalNAc
# Procedure, shortened: as §1
# [4] = molecular target: Neu5Ac(a2-3)Gal(b1-4)GlcNAc6S
# Procedure, shortened: as §1
# [5] = molecular target: Neu5Ac(a2-3)Gal(b1-4)[Fuc(a1-3)]GlcNAc
# Procedure, shortened: as §1
# [6] = molecular target: Neu5Ac(a2-3)Gal(b1-4)[Fuc(a1-3)]GlcNAc(b1-2)Man
# Procedure, shortened: as §1
# [7] = molecular target: Neu5Ac(a2-3)Gal(b1-4)[Fuc(a1-3)]GlcNAc(b1-3)Gal
# Procedure, shortened: as §1
# [8] = molecular target: Neu5Ac(a2-3)Gal(b1-4)[Fuc(a1-3)]GlcNAc(b1-3)Gal(b1-4)GlcNAc
# Procedure, shortened: as §1
# [9] = molecular target: Neu5Ac(a2-3)Gal(b1-4)[Fuc(a1-3)]GlcNAc(b1-3)Gal(b1-4)[Fuc(a1-3)]GlcNAc(b1-3)Gal(b1-4)[Fuc(a1-3)]GlcNAc
# Procedure, shortened: as §1
# [10] = molecular target: Neu5Ac(a2-3)Gal(b1-4)[Fuc(a1-3)]GlcNAc(b1-3)GalNAc
# Procedure, shortened: as §1
# [11] = molecular target: Neu5Ac(a2-3)Gal(b1-4)[Fuc(a1-3)]GlcNAc(b1-6)[Gal(b1-3)]GalNAc
# Procedure, shortened: as §1
# [12] = molecular target: Neu5Ac(a2-3)Gal(b1-4)[Fuc(a1-3)]GlcNAc(b1-6)[Neu5Ac(a2-3)Gal(b1-3)]GalNAc
# Procedure, shortened: as §1
# [13] = molecular target: Neu5Ac(a2-3)Gal(b1-4)[Fuc(a1-3)]GlcNAc6S
# Procedure, shortened: as §1
# [14] = molecular target: Neu5Ac(a2-3)Gal6S(b1-4)GlcNAc
# Procedure, shortened: as §1
# [15] = molecular target: Neu5Ac(a2-3)Gal6S(b1-4)[Fuc(a1-3)]GlcNAc
# Procedure, shortened: as §1
# [16] = molecular target: Neu5Ac(a2-3)GalNAc
# Procedure, shortened: as §1
# [17] = molecular target: Neu5Ac(a2-3)GalNAc(b1-4)GlcNAc
# Procedure, shortened: as §1
# [18] = molecular target: Neu5Ac(a2-3)[GalNAc(b1-4)]Gal(b1-4)Glc
# Procedure, shortened: as §1
# [19] = molecular target: Neu5Ac(a2-3)[GalNAc(b1-4)]Gal(b1-4)GlcNAc
# Procedure, shortened: as §1
# [20] = molecular target: Neu5Ac(a2-3)[GalNAc(b1-4)]Gal(b1-4)GlcNAc(b1-3)GalNAc
# Procedure, shortened: as §1
# [21] = molecular target: Neu5Ac(a2-3)[Neu5Ac(a2-6)]GalNAc
# Procedure, shortened: as §1
# [22] = molecular target: Neu5Ac(a2-6)Gal
# Procedure, shortened: as §1
# [23] = molecular target: Neu5Ac(a2-6)Gal(b1-3)GlcNAc(b1-3)[Gal(b1-4)GlcNAc(b1-6)]Gal(b1-4)Glc
# Procedure, shortened: as §1
# [24] = molecular target: Neu5Ac(a2-6)Gal(b1-4)Glc
# Procedure, shortened: as §1
# [25] = molecular target: Neu5Ac(a2-6)Gal(b1-4)GlcNAc
# Procedure, shortened: as §1
# [26] = molecular target: Neu5Ac(a2-6)Gal(b1-4)GlcNAc(b1-2)Man
# Procedure, shortened: as §1
# [27] = molecular target: Neu5Ac(a2-6)Gal(b1-4)GlcNAc(b1-2)Man(a1-3)Man(b1-4)GlcNAc(b1-4)GlcNAc
# Procedure, shortened: as §1
# [28] = molecular target: Neu5Ac(a2-6)Gal(b1-4)GlcNAc(b1-2)Man(a1-3)[Gal(b1-4)GlcNAc(b1-2)Man(a1-6)]Man(b1-4)GlcNAc(b1-4)GlcNAc
# Procedure, shortened: as §1
# [29] = molecular target: Neu5Ac(a2-6)Gal(b1-4)GlcNAc(b1-2)Man(a1-3)[GlcNAc(b1-2)Man(a1-6)]Man(b1-4)GlcNAc(b1-4)GlcNAc
# Procedure, shortened: as §1
# [30] = molecular target: Neu5Ac(a2-6)Gal(b1-4)GlcNAc(b1-2)Man(a1-3)[GlcNAc(b1-4)][Neu5Ac(a2-6)Gal(b1-4)GlcNAc(b1-2)Man(a1-6)]Man(b1-4)GlcNAc(b1-4)GlcNAc
# Procedure, shortened: as §1
# [31] = molecular target: Neu5Ac(a2-6)Gal(b1-4)GlcNAc(b1-2)Man(a1-3)[Man(a1-6)]Man(b1-4)GlcNAc(b1-4)GlcNAc
# Procedure, shortened: as §1
binder,measurement,setting,value
PX14404-bvu-534-26-534 (Bacteroides vulgatus) (protein) EDPRGKLTPENFFSTQDELNMSIYALYQKVNLSQVYTNMQLPQWQGDDITTNPGSNKQPAAEMDKFAAANNNKGVKDAWNMHYAIVKAANLIIQGASKTPTTQDEINIALGQAKFWRAYAYFTLVRLWGPLPMNLDNVNDDYTKPLSPVEEVYGHIVQDLTEAEAVLPTGYSGSPRFLNGVNVYVTRQAAKSTLAAVYMAMAGWPMNKTEYYAKAAEKAKEVIEGVNRGEYEYKLDKDYKDVYAMSNNYNNETVLGINYSPFVDWAQDSELTSCNQFESLGGWGDAWGEIRFWKEFPDGPRKDATYDPKIRLKDGTLVDWWELKEDGTPVVPEHHPMFSIFSVNWDPASKVNTSAPYDYTKPASQNMCNDHRHRIIRYSEVLLWYAEAKARTGQTDELAFKCLNDVRERAGLEPLTGLSADDLAEAAYKEHGWEVAGYWVALVTRRADQFRMNRLKDTFKERAENTAVEVADGILVKESVEYTNRTWSDNLMYLPYPDMDSQKNPNLVR,glycan array binding signal (z-score),[1],0.028
same,glycan array binding signal (z-score),[2],-0.005
same,glycan array binding signal (z-score),[3],1.1
same,glycan array binding signal (z-score),[4],0.686
same,glycan array binding signal (z-score),[5],-1.06
same,glycan array binding signal (z-score),[6],-0.51
same,glycan array binding signal (z-score),[7],-1.09
same,glycan array binding signal (z-score),[8],-0.297
same,glycan array binding signal (z-score),[9],0.228
same,glycan array binding signal (z-score),[10],0.921
same,glycan array binding signal (z-score),[11],-0.408
same,glycan array binding signal (z-score),[12],3.23
same,glycan array binding signal (z-score),[13],-0.216
same,glycan array binding signal (z-score),[14],0.553
same,glycan array binding signal (z-score),[15],-0.892
same,glycan array binding signal (z-score),[16],0.608
same,glycan array binding signal (z-score),[17],-0.434
same,glycan array binding signal (z-score),[18],-1.43
same,glycan array binding signal (z-score),[19],-0.805
same,glycan array binding signal (z-score),[20],1.38
same,glycan array binding signal (z-score),[21],1.18
same,glycan array binding signal (z-score),[22],1.3
same,glycan array binding signal (z-score),[23],-0.444
same,glycan array binding signal (z-score),[24],0.839
same,glycan array binding signal (z-score),[25],0.634
same,glycan array binding signal (z-score),[26],-0.24
same,glycan array binding signal (z-score),[27],-0.116
same,glycan array binding signal (z-score),[28],-0.017
same,glycan array binding signal (z-score),[29],-0.39
same,glycan array binding signal (z-score),[30],-0.239
same,glycan array binding signal (z-score),[31],0.469

# Part of the list above, reformatted:
binder | measurement | setting | value
PX14404-bvu-534-26-534 (Bacteroides vulgatus) (protein) EDPRGKLTPENFFSTQDELNMSIYALYQKVNLSQVYTNMQLPQWQGDDITTNPGSNKQPAAEMDKFAAANNNKGVKDAWNMHYAIVKAANLIIQGASKTPTTQDEINIALGQAKFWRAYAYFTLVRLWGPLPMNLDNVNDDYTKPLSPVEEVYGHIVQDLTEAEAVLPTGYSGSPRFLNGVNVYVTRQAAKSTLAAVYMAMAGWPMNKTEYYAKAAEKAKEVIEGVNRGEYEYKLDKDYKDVYAMSNNYNNETVLGINYSPFVDWAQDSELTSCNQFESLGGWGDAWGEIRFWKEFPDGPRKDATYDPKIRLKDGTLVDWWELKEDGTPVVPEHHPMFSIFSVNWDPASKVNTSAPYDYTKPASQNMCNDHRHRIIRYSEVLLWYAEAKARTGQTDELAFKCLNDVRERAGLEPLTGLSADDLAEAAYKEHGWEVAGYWVALVTRRADQFRMNRLKDTFKERAENTAVEVADGILVKESVEYTNRTWSDNLMYLPYPDMDSQKNPNLVR | glycan array binding signal (z-score) | [17] | -0.434
same | glycan array binding signal (z-score) | [18] | -1.43
